Reference: patent US20040053231A1
No constants are given. Whether binding was seen depends on the method and setting. In cells and extracts the contact can be indirect. Some entries that bind do so weakly or less than the wild type.

Amino acid sequences for entries named in this document (tags omitted). Residues count along the entry.
UniProt Q09472, residues 300-528: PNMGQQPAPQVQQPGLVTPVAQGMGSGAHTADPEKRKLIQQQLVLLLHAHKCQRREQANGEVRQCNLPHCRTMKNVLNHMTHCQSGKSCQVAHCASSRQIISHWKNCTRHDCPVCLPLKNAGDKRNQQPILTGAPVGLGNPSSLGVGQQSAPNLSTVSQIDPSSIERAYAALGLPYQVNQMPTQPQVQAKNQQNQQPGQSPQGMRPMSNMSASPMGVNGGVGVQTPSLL

Target: GST-p300CH1 (p300 residues 300-528) (UniProt Q09472)
Test: competition in GST-p300CH1 pull-down; GST-CH1 pre-incubated with the peptide, competitor of 35S-labelled SREBP2

With DEEALTSLELELGLHRVRELPELFLGQSEFDCF the binding was “binds”.
